The source of these data is PMC8980084.

Protein sequences, listed by entry. Tags and fused reporters are not part of them.
UniProt Q96PY5: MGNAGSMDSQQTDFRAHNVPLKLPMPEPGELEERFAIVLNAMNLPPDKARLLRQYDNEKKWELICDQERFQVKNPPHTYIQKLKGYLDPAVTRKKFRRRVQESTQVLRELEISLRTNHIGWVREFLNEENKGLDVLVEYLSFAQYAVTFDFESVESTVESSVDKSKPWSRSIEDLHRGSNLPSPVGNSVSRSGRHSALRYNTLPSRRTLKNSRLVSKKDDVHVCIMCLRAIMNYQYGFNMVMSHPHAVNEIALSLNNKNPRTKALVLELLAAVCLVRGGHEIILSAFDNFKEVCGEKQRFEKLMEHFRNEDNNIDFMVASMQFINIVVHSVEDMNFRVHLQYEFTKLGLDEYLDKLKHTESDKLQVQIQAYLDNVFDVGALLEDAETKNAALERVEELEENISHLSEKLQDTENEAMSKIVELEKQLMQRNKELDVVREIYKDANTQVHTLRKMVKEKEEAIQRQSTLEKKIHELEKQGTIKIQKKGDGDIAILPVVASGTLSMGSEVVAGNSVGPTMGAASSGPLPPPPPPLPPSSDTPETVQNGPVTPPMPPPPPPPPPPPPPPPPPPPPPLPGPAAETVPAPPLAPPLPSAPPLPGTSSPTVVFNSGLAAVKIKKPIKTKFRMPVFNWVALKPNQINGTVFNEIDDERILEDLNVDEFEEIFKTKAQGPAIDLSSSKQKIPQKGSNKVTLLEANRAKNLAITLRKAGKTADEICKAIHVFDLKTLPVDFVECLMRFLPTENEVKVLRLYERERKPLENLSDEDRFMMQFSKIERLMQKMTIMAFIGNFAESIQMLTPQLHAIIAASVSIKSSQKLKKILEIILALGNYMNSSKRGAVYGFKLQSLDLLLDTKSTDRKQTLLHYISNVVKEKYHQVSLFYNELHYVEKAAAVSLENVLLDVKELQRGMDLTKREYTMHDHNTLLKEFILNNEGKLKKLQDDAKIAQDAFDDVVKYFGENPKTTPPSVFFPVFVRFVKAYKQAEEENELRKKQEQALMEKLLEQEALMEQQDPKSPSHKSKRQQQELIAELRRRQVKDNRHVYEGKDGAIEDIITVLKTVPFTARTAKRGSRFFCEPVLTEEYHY
UniProt P61586: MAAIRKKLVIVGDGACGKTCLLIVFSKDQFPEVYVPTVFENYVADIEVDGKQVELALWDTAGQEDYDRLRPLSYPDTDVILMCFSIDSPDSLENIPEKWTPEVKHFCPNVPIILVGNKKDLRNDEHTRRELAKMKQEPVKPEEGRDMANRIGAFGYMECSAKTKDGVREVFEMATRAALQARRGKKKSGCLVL

These are yes or no findings as the source states them, for the method shown. In cells and extracts the contact can be indirect. Some binding calls cover weakened binding; strength is not graded here.

The assay concerns the target Formin-like protein 2 (FMNL2) (human) (UniProt Q96PY5). Nature of the assay: co-IP; Dynabeads protein G immunoprecipitation kit (Invitrogen), breast cancer cells; precipitating antibody and cell line not stated; detection by western blotting. In general terms: Immunoblotting shows a protein as a band on a membrane.

Take RhoA (from UniProt P61586 1-193): the binding entry is “binds”.
